# According to the supplement of paper PMC8728848:
# This is one part of the list.
# B1: Ovorubin (Pomacea canaliculata), J7I2T6 (protein)
# chain: MFVATSLLLAIATLVVRASPHNYLIMDIEPPKSVSERDILNLLSPLQVKHSFRVTGSTRLLIVIRLDAQSYEKLDEITVPGKVEVIPAVNMADTMERCGVSWPRVELTDDNVTLFESESTLTDVTKEQLKAMLIGYGEHMSGLLQAHRFEYYQAAGATPHRHFVFVNSVPDEIEVFGREGVDIWGGPGEFVVKPQYVTRI
# What was measured:
# Assay in all cases: glycan array binding signal (z-score within array); higher = stronger binding
# Conditions in all cases: glycan notation: IUPAC condensed, linker removed
# [1] = molecular target: Fuc(a1-2)[GalNAc(a1-3)]Gal(b1-3)GlcNAc(b1-3)GalNAc
# Method in brief: (§1)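 The Consortium for Functional Glycomics database supplied 3228 glycan arrays, of which those lacking an available protein sequence were dropped. The binding signal, a within-array Z-score, was averaged across arrays of the same protein sequence and across linkers. Negative scores can be read as non-binding.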
# [2] = molecular target: Fuc(a1-2)[GalNAc(a1-3)]Gal(b1-3)GlcNAc(b1-6)GalNAc
# Method in brief: as §1
# [3] = molecular target: Fuc(a1-2)[GalNAc(a1-3)]Gal(b1-4)Glc
# Method in brief: as §1
# [4] = molecular target: Fuc(a1-2)[GalNAc(a1-3)]Gal(b1-4)GlcNAc
# Method in brief: as §1
# [5] = molecular target: Fuc(a1-2)[GalNAc(a1-3)]Gal(b1-4)GlcNAc(b1-2)Man
# Method in brief: as §1
# [6] = molecular target: Fuc(a1-2)[GalNAc(a1-3)]Gal(b1-4)GlcNAc(b1-2)Man(a1-3)[Fuc(a1-2)[GalNAc(a1-3)]Gal(b1-4)GlcNAc(b1-2)Man(a1-6)]Man(b1-4)GlcNAc(b1-4)GlcNAc
# Method in brief: as §1
# [7] = molecular target: Fuc(a1-2)[GalNAc(a1-3)]Gal(b1-4)GlcNAc(b1-2)Man(a1-3)[Fuc(a1-2)[GalNAc(a1-3)]Gal(b1-4)GlcNAc(b1-2)Man(a1-6)]Man(b1-4)GlcNAc(b1-4)[Fuc(a1-6)]GlcNAc
# Method in brief: as §1
# [8] = molecular target: Fuc(a1-2)[GalNAc(a1-3)]Gal(b1-4)GlcNAc(b1-3)Gal(b1-4)GlcNAc
# Method in brief: as §1
# [9] = molecular target: Fuc(a1-2)[GalNAc(a1-3)]Gal(b1-4)GlcNAc(b1-3)Gal(b1-4)GlcNAc(b1-3)Gal(b1-4)GlcNAc
# Method in brief: as §1
# [10] = molecular target: Fuc(a1-2)[GalNAc(a1-3)]Gal(b1-4)GlcNAc(b1-3)GalNAc
# Method in brief: as §1
# [11] = molecular target: Fuc(a1-2)[GalNAc(a1-3)]Gal(b1-4)GlcNAc(b1-3)[Fuc(a1-2)[GalNAc(a1-3)]Gal(b1-4)GlcNAc(b1-6)]GalNAc
# Method in brief: as §1
# [12] = molecular target: Fuc(a1-2)[GalNAc(a1-3)]Gal(b1-4)GlcNAc(b1-6)GalNAc
# Method in brief: as §1
# [13] = molecular target: Fuc(a1-2)[GalNAc(a1-3)]Gal(b1-4)[Fuc(a1-3)]GlcNAc
# Method in brief: as §1
# [14] = molecular target: Fuc(a1-2)[GalNAc(a1-3)]Gal(b1-4)[Fuc(a1-3)]GlcNAc(b1-3)GalNAc
# Method in brief: as §1
# [15] = molecular target: Fuc(a1-2)[GalNAc(a1-4)]Gal(b1-4)GlcNAc
# Method in brief: as §1
# [16] = molecular target: Fuc(a1-2)[GalNAc(b1-3)]Gal
# Method in brief: as §1
# Fuc(a1-3)GlcNAc = molecular target: Fuc(a1-3)GlcNAc
# Method in brief: as §1
# [17] = molecular target: Fuc(a1-3)[Gal(b1-4)]Glc6S
# Method in brief: as §1
# [18] = molecular target: Fuc(a1-3)[Gal(b1-4)]GlcNAc
# Method in brief: as §1
# [19] = molecular target: Fuc(a1-3)[Gal(b1-4)]GlcNAc(b1-2)Man
# Method in brief: as §1
# [20] = molecular target: Fuc(a1-3)[Gal(b1-4)]GlcNAc(b1-2)Man(a1-3)[Fuc(a1-3)[Gal(b1-4)]GlcNAc(b1-2)Man(a1-6)]Man(b1-4)GlcNAc(b1-4)GlcNAc
# Method in brief: as §1
# [21] = molecular target: Fuc(a1-3)[Gal(b1-4)]GlcNAc(b1-2)Man(a1-3)[Fuc(a1-3)[Gal(b1-4)]GlcNAc(b1-2)Man(a1-6)]Man(b1-4)GlcNAc(b1-4)[Fuc(a1-6)]GlcNAc
# Method in brief: as §1
# [22] = molecular target: Fuc(a1-3)[Gal(b1-4)]GlcNAc(b1-3)Gal(b1-3)[Fuc(a1-4)]GlcNAc
# Method in brief: as §1
# [23] = molecular target: Fuc(a1-3)[Gal(b1-4)]GlcNAc(b1-3)Gal(b1-4)[Fuc(a1-3)]GlcNAc
# Method in brief: as §1
# [24] = molecular target: Fuc(a1-3)[Gal(b1-4)]GlcNAc(b1-3)Gal(b1-4)[Fuc(a1-3)]GlcNAc(b1-3)Gal(b1-4)[Fuc(a1-3)]GlcNAc
# Method in brief: as §1
# [25] = molecular target: Fuc(a1-3)[Gal(b1-4)]GlcNAc(b1-3)GalNAc
# Method in brief: as §1
# [26] = molecular target: Fuc(a1-3)[Gal(b1-4)]GlcNAc(b1-6)GalNAc
# Method in brief: as §1
# [27] = molecular target: Fuc(a1-3)[Gal(b1-4)]GlcNAc(b1-6)[Gal(b1-3)GlcNAc(b1-3)]Gal(b1-4)Glc
# Method in brief: as §1
# [28] = molecular target: Fuc(a1-3)[Gal(b1-4)]GlcNAc6S
# Method in brief: as §1
# [29] = molecular target: Fuc(a1-3)[Gal3S(b1-4)]Glc
# Method in brief: as §1
# [30] = molecular target: Fuc(a1-3)[Gal3S(b1-4)]GlcNAc
# Method in brief: as §1
# [31] = molecular target: Fuc(a1-3)[Gal3S(b1-4)]GlcNAc6S
# Method in brief: as §1
# [32] = molecular target: Fuc(a1-3)[GalNAc(b1-4)]GlcNAc
# Method in brief: as §1
# [33] = molecular target: Fuc(a1-3)[GalNAc(b1-4)]GlcNAc6S
# Method in brief: as §1
# Fuc(a1-4)GlcNAc = molecular target: Fuc(a1-4)GlcNAc
# Method in brief: as §1
# Fuc(b1-3)GlcNAc = molecular target: Fuc(b1-3)GlcNAc
# Method in brief: as §1
# Gal(a1-2)Gal = molecular target: Gal(a1-2)Gal
# Method in brief: as §1
# Gal(a1-3)Gal = molecular target: Gal(a1-3)Gal
# Method in brief: as §1
# Gal(a1-3)Gal(b1-3)GlcNAc = molecular target: Gal(a1-3)Gal(b1-3)GlcNAc
# Method in brief: as §1
# [34] = molecular target: Gal(a1-3)Gal(b1-3)GlcNAc(b1-2)Man
# Method in brief: as §1
# [35] = molecular target: Gal(a1-3)Gal(b1-3)GlcNAc(b1-2)Man(a1-3)[Gal(a1-3)Gal(b1-3)GlcNAc(b1-2)Man(a1-6)]Man(b1-4)GlcNAc(b1-4)GlcNAc
# Method in brief: as §1
# [36] = molecular target: Gal(a1-3)Gal(b1-3)GlcNAc(b1-3)GalNAc
# Method in brief: as §1
# [37] = molecular target: Gal(a1-3)Gal(b1-3)GlcNAc(b1-6)GalNAc
# Method in brief: as §1
# [38] = molecular target: Gal(a1-3)Gal(b1-3)[Fuc(a1-4)]GlcNAc(b1-2)Man(a1-3)[Gal(a1-3)Gal(b1-3)[Fuc(a1-4)]GlcNAc(b1-2)Man(a1-6)]Man(b1-4)GlcNAc(b1-4)GlcNAc
# Method in brief: as §1
# Gal(a1-3)Gal(b1-4)Glc = molecular target: Gal(a1-3)Gal(b1-4)Glc
# Method in brief: as §1
binder,measurement,setting,value
B1,glycan array binding signal (z-score),[1],-0.128
same,glycan array binding signal (z-score),[2],2.54
same,glycan array binding signal (z-score),[3],-0.263
same,glycan array binding signal (z-score),[4],-0.588
same,glycan array binding signal (z-score),[5],0.353
same,glycan array binding signal (z-score),[6],-0.645
same,glycan array binding signal (z-score),[7],-0.003
same,glycan array binding signal (z-score),[8],-0.679
same,glycan array binding signal (z-score),[9],-0.704
same,glycan array binding signal (z-score),[10],-0.326
same,glycan array binding signal (z-score),[11],-0.753
same,glycan array binding signal (z-score),[12],-1.21
same,glycan array binding signal (z-score),[13],-0.647
same,glycan array binding signal (z-score),[14],0.061
same,glycan array binding signal (z-score),[15],-0.576
same,glycan array binding signal (z-score),[16],-0.423
same,glycan array binding signal (z-score),Fuc(a1-3)GlcNAc,-0.985
same,glycan array binding signal (z-score),[17],-0.226
same,glycan array binding signal (z-score),[18],-0.033
same,glycan array binding signal (z-score),[19],-0.081
same,glycan array binding signal (z-score),[20],0.055
same,glycan array binding signal (z-score),[21],-0.362
same,glycan array binding signal (z-score),[22],-0.594
same,glycan array binding signal (z-score),[23],0.745
same,glycan array binding signal (z-score),[24],0.056
same,glycan array binding signal (z-score),[25],-0.376
same,glycan array binding signal (z-score),[26],0.355
same,glycan array binding signal (z-score),[27],0.356
same,glycan array binding signal (z-score),[28],-0.121
same,glycan array binding signal (z-score),[29],-0.645
same,glycan array binding signal (z-score),[30],-0.035
same,glycan array binding signal (z-score),[31],1.17
same,glycan array binding signal (z-score),[32],1.12
same,glycan array binding signal (z-score),[33],0.872
same,glycan array binding signal (z-score),Fuc(a1-4)GlcNAc,-0.916
same,glycan array binding signal (z-score),Fuc(b1-3)GlcNAc,-0.519
same,glycan array binding signal (z-score),Gal(a1-2)Gal,-0.308
same,glycan array binding signal (z-score),Gal(a1-3)Gal,-0.576
same,glycan array binding signal (z-score),Gal(a1-3)Gal(b1-3)GlcNAc,-0.369
same,glycan array binding signal (z-score),[34],-1.05
same,glycan array binding signal (z-score),[35],0.869
same,glycan array binding signal (z-score),[36],-0.803
same,glycan array binding signal (z-score),[37],0.354
same,glycan array binding signal (z-score),[38],0.574
same,glycan array binding signal (z-score),Gal(a1-3)Gal(b1-4)Glc,-0.393

# Two entries picked at random from the list so far:
binder,measurement,setting,value
B1,glycan array binding signal (z-score),[22],-0.594
same,glycan array binding signal (z-score),[13],-0.647
